In PMC2746283, “BtubA-BtubB Heterodimer Is an Essential Intermediate in Protofilament Assembly” (PLoS ONE, 2009):
Results are given in words; binding and its absence hold for the method and conditions named.

B1: BtubB, wild type (natural protein)
chain: VREILSIHVGQCGNQIADSFWRLALREHGLTEAGTLKEGSNAAANSNMEVFFHKVRDGKYVPRAVLVDLEPGVIARIEGGDMSQLFDESSIVRKIPGAANNWARGYNVEGEKVIDQIMNVIDSAVEKTKGLQGFLMTHSIGGGSGSGLGSLILERLRQAYPKKRIFTFSVVPSPLISDSAVEPYNAILTLQRILDNADGAVLLDNEALFRIAKAKLNRSPNYMDLNNIIALIVSSVTASLRFPGKLNTDLSEFVTNLVPFPGNHFLTASFAPMRGAGQEGQVRTNFPDLARETFAQDNFTAAIDWQQGVYLAASALFRGDVKAKDVDENMATIRKSLNYASYMPASGGLKLGYAETAPEGFASSGLALVNHTGIAAVFERLIAQFDIMFDNHAYTHWYENAGVSRDMMAKARNQIATLAQSYRDAS
notes: BtubB, bacterial tubulin-like protein of Prosthecobacter; the species is printed only for BtubA (P. dejongeii); also called B-wt; BtubB WT; source: E. coli, purified as described previously [3], with an added Sephacryl HR-100 column step; not shown: His tag, N-terminal, kept
B2: BtubA, wild type (natural protein, P. dejongeii)
chain: MKVNNTIVVSIGQAGNQIAASFWKTVCLEHGIDPLTGQTAPGVAPRGNWSSFFSKLGESSSGSYVPRAIMVDLEPSVIDNVKATSGSLFNPANLISRTEGAGGNFAVGYLGAGREVLPEVMSRLDYEIDKCDNVGGIIVLHAIGGGTGSGFGALLIESLKEKYGEIPVLSCAVLPSPQVSSVVTEPYNTVFALNTLRRSADACLIFDNEALFDLAHRKWNIESPTVDDLNLLITEALAGITASMRFSGFLTVEITLRELLTNLVPQPSLHFLMCAFAPLTPPDRSKFEELGIEEMIKSLFDNGSVFAACSPMEGRFLSTAVLYRGIMEDKPLADAALAAMREKLPLTYWIPTAFKIGYVEQPGISHRKSMVLLANNTEIARVLDRICHNFDKLWQRKAFANWYLNEGMSEEQINVLRASAQELVQSYQVAEESGAKAKVQDSAGDTGMRAAAAGVSDDARGSMSLRDLVDRRR

Key:
[1] = target: BtubB, wild type (Prosthecobacter (species not stated for BtubB)) (UniProt Q8GCC1); assay: AUC; sedimentation equilibrium of BtubA alone or BtubB alone, no GTP, HMK buffer; both purified
[2] = target: B2; assay: as above

binding [1]	binding [2]	Binder
no binding		B1
	no binding	B2
